## Screening data, single-dose tests

Data taken from ChEMBL document CHEMBL3988442, “University of Dundee, Small-Polar-MMV Screening Library” (2021).

A: 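Growth of Mycobacterium tuberculosis over 4 days (cholesterol / DPPC medium with tyloxapol); the read-out is not stated. Tested at 50 µM. Higher reads as more growth inhibition (inferred: compounds with an IC50 in retests scored well above the rest). Size under these conditions: about 69,000 compounds, about 370 of them at 50% or above in at least one test.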
B: 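Whole-cell growth test on Mycobacterium tuberculosis, read after 3 days in glucose-containing 7H9 medium; the read-out is not stated. Concentration: 50 µM. Direction is inferred from retests: higher values go with more growth inhibition. About 69,000 compounds were tested under these conditions; 1.1% (about 760) showed 50% or more at least once.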

Each number is a percent effect as filed.
The record does not define 0% and 100%; most values in the screen are far below 50% and negative numbers occur (in some assays of this library far below -100).
The compounds are a random part of those screened.
Two or more numbers in one place are separate tests of the same structure; such repeats can differ widely.

| compound | A | B |
|---|---|---|
| `CC(=O)c1ccc(NC(=O)NCc2cccc(N(C)C)n2)cc1C` | 22.09 | 39.21 and 29.52 |
| `CC(O)c1cn(CC2CCN(C(=O)c3cccc(N(C)C)c3)CC2)nn1` (stereo not shown) | 6.501 | 4.178 and -3.571 |
| `CC(Nc1nccc(CCC(F)(F)F)n1)c1nc(-c2ccccn2)no1` (stereo not shown) | 12.46 | 25.85 |
| `C1CCN(c2nc(N3CCOCC3)nc3[nH]nnc23)CC1` | -3.989 | -34.13 and -0.7328 |
| `[H][C@]12CN(Cc3cccc(OC(F)(F)F)c3)CCN1C(=O)N(C)C2` | -24.54 | 1.445 and 9.683 |
| `CC(C)(C)n1ncc(NCC(O)c2ccc(F)c(F)c2)c(Cl)c1=O` (stereo not shown) | 11.87 and 17.96 | 45.82 |
| `CCN1C(=O)C2(CCOCC2)c2cc(NC(=O)c3cnccn3)ccc21` | -4.973 | -9.701 and -14.15 |
| `CC(=O)Nc1nc(C(=O)N2CCCC(n3nc(C)nc3C)C2)cs1` (stereo not shown) | 6.471 | 30.49 |
| `Fc1ccc(C2CN(c3ncnc4[nH]ncc34)CCO2)cc1` (stereo not shown) | -21.35 | 18.4 |
| `COc1ccc2oc(C(C)NC(=O)NCc3noc(C)n3)c(C)c2c1` (stereo not shown) | -9.002 | -6.748 |
| `COCCNC(=O)C1(c2ccccc2C)CCOCC1` | -27.91 | -25.24 |
| `CC(SCC(=O)NCCC#N)c1ccc(Cl)cc1` (stereo not shown) | 5.448 | 19.72 and 7.172 |
| `CC1CCC(NC(=O)c2nn(C)cc2I)CC1` (stereo not shown) | 15.52 | 22.44 |
| `O=C(c1ccc(S(=O)(=O)NCc2ccon2)cc1)N1CCOCC1` | -28.83 | -39.67 |
| `Fc1cccc(C2(CNC3CCSC3)CCOCC2)c1` (stereo not shown) | -23.04 | -3.224 and -30.65 |
| `CCNC(=O)C1CCN(c2cc(-c3ccccc3)nc3cc(C)nn23)C1` (stereo not shown) | -16.86 | -30.93 |
| `COCCNC(=O)C1(c2ccc(C)c(OC)c2)CCCC1` | 10.11 | 8.566 |
| `CC(=O)c1cccc(OCCCC(=O)N(C)Cc2cccc(O)c2)c1` | 35.56 | 8.51 |
| `Cc1ccc(N2CCCC(N(C)Cc3nnc(C4CC4)o3)C2)nn1` (stereo not shown) | 4.954 | -7.663 |
| `N#Cc1ccccc1CN1CCC(c2nccn2CC(N)=O)CC1` | -6.571 | -3.556 and -20.46 |
| `[H][C@@]12C[C@H](C(=O)N3CCCCO3)CN(C(=O)c3cnccn3)[C@]1([H])CCO2` | -1.311 | -2.821 and 6.01 |
| `CCC(c1nc(C(C)C)nn1-c1ccncc1C)n1cccn1` (stereo not shown) | 22.84 | 27.18 |
| `CN(C1CCCN(c2ccccn2)C1)S(C)(=O)=O` (stereo not shown) | 3.183 and -2.128 | -10.06 |
| `Cc1cc(F)ccc1OC1(C(=O)O)CCN(Cc2cccnc2)CC1` | -8.721 | -3.324 and 19.65 |
| `CC(C)(C)S(=O)(=O)CCNC1CSCCc2ccccc21` (stereo not shown) | -36.58 | -53.32 |
| `CCc1nc2c(c(N3CCOCC3)n1)CCN(C(=O)c1ccon1)CC2` | -24.79 and -9.173 | -30.24 and -6.323 |
| `[H][C@]12CN(C(=O)C3CC3)CCN1C[C@@H](C(N)=O)[C@@H]2c1ccccc1` | 4.37 | 0.3118 |
| `COc1ccc(C#N)cc1CSCCN1CCOCC1` | 14.77 | 4.661 |
| `Cc1nccn1C1CCCN(C(=O)Cn2ccc(=O)n(C)c2=O)C1` (stereo not shown) | -7.599 | -11.69 |
| `CC1CCN(CCNC(=O)c2sccc2C2CC2)CC1` | 4.22 | 6.099 |
| `Cc1ccc(-c2cc(C(=O)NCCN3CCCS3(=O)=O)[nH]n2)o1` | 2.796 | 11.48 |
| `CCCOc1ccc(C(=O)N2C[C@@H](CN3CCCC3)[C@@H](CO)C2)cc1Cl` | -2.644 | 17.59 |
| `CCCc1nc(C(C)(C)NC(=O)c2ccnn2C)no1` | -9.381 and 1.482 | 24.91 |
| `CN(CC(=O)NC(C)(C#N)C1CC1)Cc1nnc(C2CC2)n1C` (stereo not shown) | 6.359 | -0.005183 and 10.14 |
| `CC(C)n1c(C2CCCN(CC(=O)NC(N)=O)C2)nc2ccccc21` (stereo not shown) | -6.27 | -4.938 |
| `CC(C)c1cc(C(=O)NCCn2nnc3ccccc32)no1` | -60.52 | -55.68 |
| `[H][C@]12CC[C@]([H])(CN(c3ncccn3)C1)N(C(=O)CCOCC)C2` | 7.168 and 2.559 | 9.911 |
| `CCc1cccc2cc(CNCCCN3CCOCC3)c(=O)[nH]c12` | 15.74 | 14.89 |
| `CC(C(=O)N1CCCC1)N1CCN(c2ncc(Cl)cn2)CC1` (stereo not shown) | 3.047 | -14.16 |
| `O=C1NCC(C(=O)Nc2ncc(Cc3ccccc3F)s2)N1` (stereo not shown) | 5.512 | 26.3 |
| `[H][C@@]12CCN(C(=O)c3sccc3S(N)(=O)=O)C[C@@]([H])(CC1)N2C` | -4.953 | 19.81 |
| `CCCc1noc(C2CCCCN2C(=O)C2CCCC2)n1` (stereo not shown) | -14.5 | -57.25 |
| `Cc1ccc(NC(=O)N2CCCC(O)(CO)CC2)cc1Cl` (stereo not shown) | -0.2844 | 23.89 |
| `O=C(Cn1cncn1)NCC1CCN(Cc2ccccc2Cl)CC1` | 11.32 | -0.9242 and 22.72 |
| `COc1ccc(CNC(=O)c2nn(C)c3c2CS(=O)(=O)CC3)cc1` | -5.717 | 2.303 |
| `CN1CCN(CC2CN(CC3CC3)Cc3nccn3C2)CC1.O=C(O)C(F)(F)F.O=C(O)C(F)(F)F.O=C(O)C(F)(F)F` (stereo not shown) | -8.269 | 2.979 |
| `NC(=O)CN1CCC(NC(=O)c2ccn(-c3cccc(F)c3)n2)CC1` | -6.939 | -10.12 and -12.27 |
| `Cc1cccc(N2CCN(C(=O)NC(C)c3nncn3C)CC2)c1` (stereo not shown) | -2.924 | -16.37 |
| `CC(C)C1Nc2ccccc2C(=O)N1CC(=O)Nc1nc2c(s1)CCC2` (stereo not shown) | 3.353 | 19.38 |
| `Cc1cnn(CC2CN(CC(=O)Nc3ccnn3C(C)C)CCO2)c1` (stereo not shown) | 5.222 | -4.234 |
| `COCCN(Cc1ccc(F)cc1Cl)C(=O)c1cc[n+]([O-])cc1` | 8.336 | 0.9904 and 15.35 |
| `Cc1ncsc1C(=O)NCCSCCCO` | -21.01 | -6.36 |
| `O=C(O)c1cc(-c2cccs2)nc2c(Cl)cnn12` | 9.343 | 15.6 |
| `CN(C)CCN(Cc1cccc(F)c1)C(=O)c1ccn(C)c(=O)c1` | 7.899 | 13.38 |
| `COc1ccccc1N(C)S(=O)(=O)c1cc(C(=O)O)cs1` | -5.846 | 15.39 |

For reference, 7 entries once more:

compound,A,B
CC1CCN(CCNC(=O)c2sccc2C2CC2)CC1,4.22,6.099
COc1ccc(C#N)cc1CSCCN1CCOCC1,14.77,4.661
CCc1cccc2cc(CNCCCN3CCOCC3)c(=O)[nH]c12,15.74,14.89
CC(O)c1cn(CC2CCN(C(=O)c3cccc(N(C)C)c3)CC2)nn1 (stereo not shown),6.501,4.178 and -3.571
Cc1cnn(CC2CN(CC(=O)Nc3ccnn3C(C)C)CCO2)c1 (stereo not shown),5.222,-4.234
[H][C@]12CC[C@]([H])(CN(c3ncccn3)C1)N(C(=O)CCOCC)C2,7.168 and 2.559,9.911
CC(C(=O)N1CCCC1)N1CCN(c2ncc(Cl)cn2)CC1 (stereo not shown),3.047,-14.16